Results are given in words; binding and its absence hold for the method and conditions named. Some entries that bind do so weakly or less than the wild type.
T1: cynomolgus monkey CD37 (Macaca fasicularis CD37) (cynomolgus monkey (Macaca fasicularis as printed))
T1 sequence: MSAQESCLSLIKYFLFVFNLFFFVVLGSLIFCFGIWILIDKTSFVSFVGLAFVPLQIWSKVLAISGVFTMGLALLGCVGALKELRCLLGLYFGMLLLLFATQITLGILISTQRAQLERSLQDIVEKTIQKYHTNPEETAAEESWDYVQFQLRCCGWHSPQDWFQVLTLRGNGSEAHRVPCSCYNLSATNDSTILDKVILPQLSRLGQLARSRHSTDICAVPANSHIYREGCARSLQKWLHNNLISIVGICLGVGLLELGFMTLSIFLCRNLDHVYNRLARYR


The binders below were run against T1, cynomolgus monkey CD37 (Macaca fasicularis CD37) (cynomolgus monkey (Macaca fasicularis as printed)) (assay: FACS on CD20+ gated cynomolgus monkey PBMCs, compared with anti-hCD37 Ab1).

Binder	binding
anti-hCD37 Ab1.G7 (antibody, human IgG1, kappa, name in Kabat numbering, V domains shown) VH: QVQLVQSGAEVKKPGASVKVSCKASGYTFTGYNMNWVRQNNGQRLEWMGNIDPYYGGTTYNRKFQGRVTITVDTSASTAYMELKSLRSEDTAVYYCARSVGPMDYWGQGTLVTVSS VL: DIQMTQSPSSLSASVGDRVTITCRTSENVYSYLAWYQQKPGKAPKLLIYFAKTLAEGVPSRFSGSGSGTQFTLTISSLQPEDSASYYCQHHSENPWTFGGGTELEIKR	binds
anti-hCD37 Ab1.G3 (antibody, human IgG1, kappa, name in Kabat numbering, V domains shown) VH: QVQLVQSGAEVKKPGASVKVSCKASGYTFTGYNLNWVRQNNGQRLEWMGNIDPYYGGTTYNRKFKGRVTITVDTSASTAYMELKSLRSEDTAVYYCARSVGPMDYWGQGTLVTVSS VL: DIQMTQSPSSLSASVGDRVTITCRTSENVYSYLAWYQQKPGKAPKLLIYFAKTLAEGVPSRFSGSGSGTQFTLTISSLQPEDSASYYCQHHSENPWTFGGGTELEIKR	binds

Second part, the binder after the results:

binding	Binder
binds	anti-hCD37 Ab1.F7 (antibody, human IgG1, kappa, name in Kabat numbering, V domains shown) VH: QVQLVQSGAEVKKPGASVKVSCKASGYTFTGYNMNWVRQNNGQRLEWMGNIDPYYGGTTYNRKFQGRVTITVDTSASTAYMELKSLRSEDTAVYYCARSVGPMDYWGQGTLVTVSS VL: DIQMTQSPSSLSASVGDRVTITCRTSENVYSYLAWYQQKPGKAPKLLIYFAKTLAEGVPSRFSGSGSGTQFTLTISSLQPEDSASYYCQHHTDNPWTFGGGTELEIKR
binds	anti-hCD37 Ab1.D1 (antibody, human IgG1, kappa, name in Kabat numbering, V domains shown) VH: QVQLVQSGAEVKKPGASVKVSCKASGYTFTGYNVNWVRQNNGQRLEWMGNIDPYYGGTTYNRKFKGRVTITVDTSASTAYMELKSLRSEDTAVYYCARSVGPMDYWGQGTLVTVSS VL: DIQMTQSPSSLSASVGDRVTITCRTSENVYSYLAWYQQKPGKAPKLLIYFAKTIAEGVPSRFSGSGSGTQFTLTISSLQPEDSASYYCQHHSDNPWTFGGGTELEIKR
binds	anti-hCD37 Ab1.F3 (antibody, human IgG1, kappa, name in Kabat numbering, V domains shown) VH: QVQLVQSGAEVKKPGASVKVSCKASGYTFTGYNLNWVRQNNGQRLEWMGNIDPYYGGTTYNRKFKGRVTITVDTSASTAYMELKSLRSEDTAVYYCARSVGPMDYWGQGTLVTVSS VL: DIQMTQSPSSLSASVGDRVTITCRTSENVYSYLAWYQQKPGKAPKLLIYFAKTLAEGVPSRFSGSGSGTQFTLTISSLQPEDSASYYCQHHTDNPWTFGGGTELEIKR

What follows are binders tested against T1, cynomolgus monkey CD37 (Macaca fasicularis CD37) (cynomolgus monkey (Macaca fasicularis as printed)) (assay: FACS on CD20+ gated cynomolgus monkey PBMCs).

binding	Binder
binds	anti-hCD37 Ab1.D11 (antibody, human IgG1, kappa, name in Kabat numbering, V domains shown) VH: QVQLVQSGAEVKKPGASVKVSCKASGYTFTGYNMNWVRQNNGQRLEWMGNIDPYYGGTTYNRKFKGRVTITVDTSASTAYMELKSLRSEDTAVYYCARSVGPLDYWGQGTLVTVSS VL: DIQMTQSPSSLSASVGDRVTITCRTSENVYSYLAWYQQKPGKAPKLLIYFAKTIAEGVPSRFSGSGSGTQFTLTISSLQPEDSASYYCQHHSDNPWTFGGGTELEIKR
binds	anti-hCD37 Ab1.H7 (antibody, human IgG1, kappa, name in Kabat numbering, V domains shown) VH: QVQLVQSGAEVKKPGASVKVSCKASGYTFTGYNMNWVRQNNGQRLEWMGNIDPYYGGTTYNRKFQGRVTITVDTSASTAYMELKSLRSEDTAVYYCARSVGPMDYWGQGTLVTVSS VL: DIQMTQSPSSLSASVGDRVTITCRTSENVYSYLAWYQQKPGKAPKLLIYFAKTLAEGVPSRFSGSGSGTQFTLTISSLQPEDSASYYCQHHSDDPWTFGGGTELEIKR

From US20240059785A1
